Experimental data reported in US20260159549A1.
Results are given in words; binding and its absence hold for the method and conditions named. Some entries that bind do so weakly or less than the wild type.

Assays:
PLPx6 [1] = biological target: T1, PLPx6; assay: co-crystal structure; affinity told in words
T1 sequence (peptide): PLPPLPPLPPLPPLPPLP

PLPx4 = biological target: T2, PLPx4; assay: repeat number series, method not named
T2 sequence (peptide): PLPPLPPLPPLP

PLPx6 [2] = biological target: T1, PLPx6; assay: repeat number series, method not named
PLPx6 [3] = biological target: T1, PLPx6; assay: specificity test of the six designs (method not given; BLI elsewhere)
PLPx6 [4] = biological target: T1, PLPx6; assay: flow cytometry, binder on yeast after 1-3 SSM substitutions, biotinylated peptide

Measured: binding

B1: RPB_PLP1_R6 (designed binder)
chain: PEEERIKYVITVVEQIAKDAHRNGQEELAKLAERTAEEAKKATERGEEETLRIVYVIVVVLQIALEAHRNGQEELAKLALRTAEEAIKATERGEEETLRIVYVIVVVLQIALEAHRNGQEELAKLALRTAEEAIKATERGEEETLRIVYVIVVVLQIALEAHRNGQEELAKLALRTAEEAIKATERGEEETLRIVYVIVVVLQIALEAHRNGQEELAKLALRTAEEAIKATERGEEETERIVYDIVVVLQEALEAHRNGEEERAKKALDEARRRIEATERGE
binds: all assays above
